The other results are listed elsewhere or left out. These are further read-outs of the screen, such as a control signal, another cell line or another target. No call is given for them. Most of these compounds were active or inconclusive in the main read-out, so they are no random draw. The note in brackets gives the kind of curve behind each potency; many fits are weak.

This test is described as follows: qHTS Assay for Modulators of Lamin A Splicing. Conditions: HeLa LMNA splicing GFP/RFP minigene ratio, 48 h. The gist of the method:
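Read-out is the ratio of GFP to DsRed2 object intensity, acquired by 488 nm laser-scanning cytometry on HeLa lamin A-EGFP minigene reporter cells. Compound incubation 48 hrs at 37 °C in Opti-MEM with 2% FBS; DMSO 0.5% final.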
(In qHTS, concentration-response curves come from the screen itself.)

[1] abbreviates: measured here: GFP splicing reporter channel.
Where [2] appears, read: measured here: RFP viability control channel.

For the compound `Cc1cc(-n2cnnn2)ccc1C(C)C`, the half-maximal activity concentration (AC50) under setting [1] is 5.01 µM [rising, partial curve].

On to `COc1ccccc1Nc1ncnc2c1nc1n2CCCC1`, for which, under setting [2], the concentration at half-maximal activity (AC50) is 0.1 µM [falling, partial curve, poor fit].

For the compound `CC(=O)c1ccc(N2CCN(C(=O)c3cc(-c4cccnc4)nc4ccc(Br)cc34)CC2)cc1`, under setting [2], the AC50 was 4.47 µM [falling, full curve, poor fit].

For the compound `NC(=NCCc1c[nH]c2ccccc12)NS(=O)(=O)c1ccc(F)cc1`, the half-maximal activity concentration (AC50) under setting [1] was 28.2 µM [rising, single point] and the AC50 under setting [2] was 25.1 µM [rising, single point].

Consider `Fc1ccc(NC(=S)NC2CC3CCCC(C2)N3Cc2cccs2)cc1` (configuration not stated), for which the concentration at half-maximal activity (AC50) under setting [1] is 1 µM [falling, full curve, poor fit].

Turning to `Cc1nnc(SCC(=O)Nc2ccc3c(c2)OCO3)[nH]c1=O`, the half-maximal activity concentration (AC50) under setting [2] was 0.00891 µM [falling, full curve, poor fit].

Consider `COC(=O)c1sc2nc(SCc3ccccc3C)n(N)c(=O)c2c1C`, for which the AC50 is, setting by setting: under setting [1], 12.6 µM [falling, single point]; under setting [2], 12.6 µM [falling, partial curve].

On to `COc1cccc(-c2nc(SCC(=O)N3CCc4ccccc43)c3c(=O)n(C)c(=O)n(C)c3n2)c1`, for which the AC50 under setting [1] was 0.355 µM [rising, single point].

Turning to `Cc1ccc(S(=O)(=O)N(C)C)cc1NC(=S)NC1CCCC(C)C1C` (configuration not stated), the concentration at half-maximal activity (AC50) under setting [1] was 5.62 µM [rising, partial curve] and the AC50 under setting [2] was 12.6 µM [rising, partial curve].

As to `COc1ccc(-c2nc3cnccn3c2Nc2ccc3c(c2)OCO3)cc1`, under setting [2], the AC50 was 11.2 µM [rising, partial curve, poor fit].

Consider `C=CCc1c(C)nc2nc(SCC(=O)Nc3ccc(OCC)cc3)nn2c1C`, for which the AC50 under setting [2] was 0.0447 µM [rising, full curve, poor fit].

As for `Cc1[nH]c2ccccc2c1CCNC(=O)c1ccc2c(c1[N+](=O)[O-])C(=O)c1ccccc1C2=O`, the AC50 was 14.1 µM [falling, partial curve] under setting [1] and 11.2 µM [falling, partial curve] under setting [2].

With `Cc1ccccc1Nc1nc(N)nc(COC(=O)CC2CC3CCC2C3)n1` (configuration not stated), the AC50 under setting [2] is 17.8 µM [rising, partial curve, poor fit].

For the compound `O=C1O[C@H]([C@@H](O)CO)C(O)=C1O`, the AC50 was 0.00355 µM [falling, full curve, poor fit] under setting [1] and 0.00251 µM [falling, full curve, poor fit] under setting [2].

Turning to `Cc1ccc(NC(=O)c2ccc(F)c(S(=O)(=O)N3CCOCC3)c2)cc1F`, the concentration at half-maximal activity (AC50) is, setting by setting: under setting [1], 6.31 µM [rising, full curve, poor fit]; under setting [2], 10 µM [rising, partial curve].

For `Clc1cccc(-n2ncc3c(N4CCN(Cc5ccccc5)CC4)ncnc32)c1`, the half-maximal activity concentration (AC50) under setting [2] was 25.1 µM [rising, partial curve].

In the case of `O=S(=O)(c1ccc2ccccc2c1)N1CCN(C(=S)Nc2ccc(F)c(Cl)c2)CC1`, under setting [2], the AC50 was 12.6 µM [rising, partial curve].

Take `Cc1noc(C)c1COC(=O)C1(c2cccc(F)c2)CCCC1`: the AC50 runs as follows: under setting [1], 11.2 µM [rising, single point]; under setting [2], 20 µM [rising, single point].

In the case of `O=c1[nH]c(CSc2nnc(COc3ccccc3)n2-c2ccccc2)nc2ccccc12`, the AC50 under setting [2] is 10 µM [rising, partial curve].

Take `O=C(COC(=O)c1c2c(nc3ccccc13)/C(=C\c1cccs1)CCC2)Nc1ccccc1Cl`: the half-maximal activity concentration (AC50) under setting [2] was 7.08 µM [rising, partial curve, poor fit].

For the compound `Cc1ccc(NC(=O)CCCSc2nc3ccccc3[nH]2)cc1`, the AC50 by setting is: under setting [1], 4.47 µM [rising, partial curve]; under setting [2], 12.6 µM [rising, partial curve].

`Clc1ccc(C(c2ccccc2Cl)C(Cl)Cl)cc1` (configuration not stated): the AC50 under setting [1] is 4.47 µM [rising, partial curve, poor fit] and the AC50 under setting [2] is 6.31 µM [falling, partial curve, poor fit].

Consider `CC(C)Oc1ccc(CNC(=O)c2ccc3nc(Cc4ccccc4)oc3c2)cc1`, for which the concentration at half-maximal activity (AC50) under setting [1] is 0.00794 µM [falling, full curve, poor fit].

On to `CCC(CC)C(=O)Nc1ccc2nc(SCC(=O)N3c4ccccc4CC3C)sc2c1` (configuration not stated), for which the AC50 under setting [1] was 1.41 µM [falling, partial curve, poor fit].

With `CC(C)(C)C(=O)Nc1nc2c(s1)COc1ccccc1-2`, under setting [2], the AC50 was 11.2 µM [rising, partial curve].

On to `CCN(CC)S(=O)(=O)c1cccc(NC(=O)CCSc2ccc(Cl)cc2)c1`, for which the AC50 under setting [2] was 20 µM [rising, single point].

With `COc1ccc([N+](=O)[O-])cc1NC(=O)C(C)Sc1nc(C)c(C)c(C)n1` (configuration not stated), the concentration at half-maximal activity (AC50) is 17.8 µM [rising, single point] under setting [1] and 35.5 µM [rising, single point] under setting [2].

For the compound `CN(C)c1ccc(C(=C2C=CC(=[N+](C)C)C=C2)c2ccccc2)cc1`, the concentration at half-maximal activity (AC50) reads like this: under setting [1], 8.91 µM [rising, partial curve]; under setting [2], 5.62 µM [rising, full curve].

Turning to `CCOC(=O)C1CCN(CCC(=O)Nc2ccc(C)c(C)c2)CC1`, the half-maximal activity concentration (AC50) under setting [2] was 1.12 µM [falling, full curve, poor fit].

In the case of `COc1ccc(NC(=O)c2sc3nc(Cc4ccccc4)cc(C(F)(F)F)c3c2N)cc1OC`, the concentration at half-maximal activity (AC50) under setting [1] was 1.78 µM [rising, full curve, poor fit].

Turning to `CN(C)CCOC(=O)C(c1ccccc1)C1(O)CCCC1` (configuration not stated), under setting [2], the half-maximal activity concentration (AC50) is 2.24 µM [falling, partial curve].

As for `CC(C)N1CCC(=NNC(=O)c2ccccc2[N+](=O)[O-])CC1`, the AC50 under setting [1] is 3.55 µM [falling, partial curve].

In the case of `CC1CC1c1ccc(/C=C(\C#N)C(=O)Nc2ccccc2Cl)o1` (configuration not stated), the AC50 under setting [2] is 22.4 µM [rising, single point].

For the compound `CCc1cc(Cl)c(OC)c(C(=O)NC[C@@H]2CCCN2CC)c1O`, the half-maximal activity concentration (AC50) reads like this: under setting [1], 11.2 µM [falling, single point]; under setting [2], 7.94 µM [falling, single point].

Turning to `Cc1ccc2onc(CC(=O)N3CCN(c4ccccc4F)CC3)c2c1`, the half-maximal activity concentration (AC50) under setting [2] was 2.82 µM [rising, full curve].

Usually AC50 stands for the concentration at which the activity in the assay is half-maximal.

Values taken from PubChem BioAssay AID1487 (National Center for Advancing Translational Sciences (NCATS), 2009).
